Results as given in the supplement of paper PMC8728848.
This is one part of the list.

Legend:
Assay in all cases: glycan array binding signal (z-score within array); higher = stronger binding
Conditions in all cases: glycan notation: IUPAC condensed, linker removed
[1] = molecular target: Fuc(a1-2)Gal(b1-4)[Fuc(a1-3)]GlcNAc(b1-2)Man(a1-3)[Fuc(a1-2)Gal(b1-4)[Fuc(a1-3)]GlcNAc(b1-2)Man(a1-6)]Man(b1-4)GlcNAc(b1-4)[Fuc(a1-6)]GlcNAc
Procedure, shortened: (§1)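 Arrays were curated from the Consortium for Functional Glycomics database, 3228 in total, and kept only where the protein sequence was available. Binding is expressed as a within-array Z-score. This score was averaged across arrays of the same protein sequence at different concentrations or buffers and across linkers, and negative values can be read as non-binding.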

[2] = molecular target: Fuc(a1-2)Gal(b1-4)[Fuc(a1-3)]GlcNAc(b1-2)[Fuc(a1-2)Gal(b1-4)[Fuc(a1-3)]GlcNAc(b1-4)]Man(a1-3)[Fuc(a1-2)Gal(b1-4)[Fuc(a1-3)]GlcNAc(b1-2)Man(a1-6)]Man(b1-4)GlcNAc(b1-4)GlcNAc
Procedure, shortened: as §1

[3] = molecular target: Fuc(a1-2)Gal(b1-4)[Fuc(a1-3)]GlcNAc(b1-3)Gal(b1-4)[Fuc(a1-3)]GlcNAc
Procedure, shortened: as §1

[4] = molecular target: Fuc(a1-2)Gal(b1-4)[Fuc(a1-3)]GlcNAc(b1-3)Gal(b1-4)[Fuc(a1-3)]GlcNAc(b1-3)Gal(b1-4)[Fuc(a1-3)]GlcNAc
Procedure, shortened: as §1

[5] = molecular target: Fuc(a1-2)Gal(b1-4)[Fuc(a1-3)]GlcNAc(b1-3)GalNAc
Procedure, shortened: as §1

[6] = molecular target: Fuc(a1-2)Gal(b1-4)[Fuc(a1-3)]GlcNAc(b1-3)[Neu5Ac(a2-6)Gal(b1-4)GlcNAc(b1-6)]Gal(b1-4)Glc
Procedure, shortened: as §1

[7] = molecular target: Fuc(a1-2)Gal3S(b1-4)GlcNAc
Procedure, shortened: as §1

[8] = molecular target: Fuc(a1-2)Gal6S(b1-3)GlcNAc
Procedure, shortened: as §1

[9] = molecular target: Fuc(a1-2)Gal6S(b1-3)GlcNAc6S
Procedure, shortened: as §1

Fuc(a1-2)Gal6S(b1-4)Glc = molecular target: Fuc(a1-2)Gal6S(b1-4)Glc
Procedure, shortened: as §1

[10] = molecular target: Fuc(a1-2)Gal6S(b1-4)Glc6S
Procedure, shortened: as §1

Fuc(a1-2)[Gal(a1-3)]Gal = molecular target: Fuc(a1-2)[Gal(a1-3)]Gal
Procedure, shortened: as §1

[11] = molecular target: Fuc(a1-2)[Gal(a1-3)]Gal(b1-3)GalNAc
Procedure, shortened: as §1

[12] = molecular target: Fuc(a1-2)[Gal(a1-3)]Gal(b1-3)GalNAc(b1-3)Gal(a1-4)Gal(b1-4)Glc
Procedure, shortened: as §1

[13] = molecular target: Fuc(a1-2)[Gal(a1-3)]Gal(b1-3)GlcNAc
Procedure, shortened: as §1

[14] = molecular target: Fuc(a1-2)[Gal(a1-3)]Gal(b1-3)GlcNAc(b1-2)Man(a1-3)[Fuc(a1-2)[Gal(a1-3)]Gal(b1-3)GlcNAc(b1-2)Man(a1-6)]Man(b1-4)GlcNAc(b1-4)GlcNAc
Procedure, shortened: as §1

[15] = molecular target: Fuc(a1-2)[Gal(a1-3)]Gal(b1-3)GlcNAc(b1-2)Man(a1-3)[Fuc(a1-2)[Gal(a1-3)]Gal(b1-3)GlcNAc(b1-2)Man(a1-6)]Man(b1-4)GlcNAc(b1-4)[Fuc(a1-6)]GlcNAc
Procedure, shortened: as §1

[16] = molecular target: Fuc(a1-2)[Gal(a1-3)]Gal(b1-3)GlcNAc(b1-3)GalNAc
Procedure, shortened: as §1

[17] = molecular target: Fuc(a1-2)[Gal(a1-3)]Gal(b1-3)GlcNAc(b1-6)GalNAc
Procedure, shortened: as §1

[18] = molecular target: Fuc(a1-2)[Gal(a1-3)]Gal(b1-4)Glc
Procedure, shortened: as §1

[19] = molecular target: Fuc(a1-2)[Gal(a1-3)]Gal(b1-4)GlcNAc
Procedure, shortened: as §1

[20] = molecular target: Fuc(a1-2)[Gal(a1-3)]Gal(b1-4)GlcNAc(b1-2)Man
Procedure, shortened: as §1

[21] = molecular target: Fuc(a1-2)[Gal(a1-3)]Gal(b1-4)GlcNAc(b1-2)Man(a1-3)[Fuc(a1-2)[Gal(a1-3)]Gal(b1-4)GlcNAc(b1-2)Man(a1-6)]Man(b1-4)GlcNAc(b1-4)GlcNAc
Procedure, shortened: as §1

[22] = molecular target: Fuc(a1-2)[Gal(a1-3)]Gal(b1-4)GlcNAc(b1-2)Man(a1-3)[Fuc(a1-2)[Gal(a1-3)]Gal(b1-4)GlcNAc(b1-2)Man(a1-6)]Man(b1-4)GlcNAc(b1-4)[Fuc(a1-6)]GlcNAc
Procedure, shortened: as §1

[23] = molecular target: Fuc(a1-2)[Gal(a1-3)]Gal(b1-4)GlcNAc(b1-3)GalNAc
Procedure, shortened: as §1

[24] = molecular target: Fuc(a1-2)[Gal(a1-3)]Gal(b1-4)GlcNAc(b1-3)[Fuc(a1-2)[Gal(a1-3)]Gal(b1-4)GlcNAc(b1-6)]GalNAc
Procedure, shortened: as §1

[25] = molecular target: Fuc(a1-2)[Gal(a1-3)]Gal(b1-4)GlcNAc(b1-6)GalNAc
Procedure, shortened: as §1

[26] = molecular target: Fuc(a1-2)[Gal(a1-3)]Gal(b1-4)[Fuc(a1-3)]Glc
Procedure, shortened: as §1

[27] = molecular target: Fuc(a1-2)[Gal(a1-3)]Gal(b1-4)[Fuc(a1-3)]GlcNAc
Procedure, shortened: as §1

[28] = molecular target: Fuc(a1-2)[Gal(a1-3)]Gal(b1-4)[Fuc(a1-3)]GlcNAc(b1-3)GalNAc
Procedure, shortened: as §1

[29] = molecular target: Fuc(a1-2)[Gal(a1-4)]Gal(b1-4)GlcNAc
Procedure, shortened: as §1

[30] = molecular target: Fuc(a1-2)[GalNAc(a1-3)]Gal
Procedure, shortened: as §1

[31] = molecular target: Fuc(a1-2)[GalNAc(a1-3)]Gal(b1-3)GalNAc(a1-3)[Fuc(a1-2)]Gal(b1-4)GlcNAc
Procedure, shortened: as §1

[32] = molecular target: Fuc(a1-2)[GalNAc(a1-3)]Gal(b1-3)GalNAc(b1-3)Gal(a1-4)Gal(b1-4)Glc
Procedure, shortened: as §1

[33] = molecular target: Fuc(a1-2)[GalNAc(a1-3)]Gal(b1-3)GlcNAc
Procedure, shortened: as §1

[34] = molecular target: Fuc(a1-2)[GalNAc(a1-3)]Gal(b1-3)GlcNAc(b1-2)Man(a1-3)[Fuc(a1-2)[GalNAc(a1-3)]Gal(b1-3)GlcNAc(b1-2)Man(a1-6)]Man(b1-4)GlcNAc(b1-4)GlcNAc
Procedure, shortened: as §1

[35] = molecular target: Fuc(a1-2)[GalNAc(a1-3)]Gal(b1-3)GlcNAc(b1-2)Man(a1-3)[Fuc(a1-2)[GalNAc(a1-3)]Gal(b1-3)GlcNAc(b1-2)Man(a1-6)]Man(b1-4)GlcNAc(b1-4)[Fuc(a1-6)]GlcNAc
Procedure, shortened: as §1

[36] = molecular target: Fuc(a1-2)[GalNAc(a1-3)]Gal(b1-3)GlcNAc(b1-3)GalNAc
Procedure, shortened: as §1

B1: Wzz (Escherichia coli) (protein)
chain: MRTWKFPSVRVMMRVENNNVSGQNHDPEQIDLIDLLVQLWRGKMTIIISVIVAIVLAIGYLAVAKEKWTSTAIITQPDVGQIAGYNNAMNVIYGQAAPKVSDLQETLIGRFSSAFSALAETLDNQEEPEKLTIEPSVKNQQLPLTVSYVGQTAEGAQMKLAQYIQQVDDKVNQELEKDLKDNIALGRKNLQDSLRTQEVVAQEQKDLRIRQIQEALQYANQAQVTKPQIQQTGEDITQDTLFLLGSEALESMIKHEATRPLVFSSNYYQTRQNLLDIDNLDVDKLDIHAYLYVMKPTLPIRRDSPKKAITLILAVLLGGMVGAGIVLGRNALRNYNAK
glycan array binding signal (z-score) [1]: -0.807
glycan array binding signal (z-score) [2]: -0.098
glycan array binding signal (z-score) [3]: 1.07
glycan array binding signal (z-score) [4]: -0.281
glycan array binding signal (z-score) [5]: 0.591
glycan array binding signal (z-score) [6]: -0.309
glycan array binding signal (z-score) [7]: -1.07
glycan array binding signal (z-score) [8]: -0.515
glycan array binding signal (z-score) [9]: 2.91
glycan array binding signal (z-score) (Fuc(a1-2)Gal6S(b1-4)Glc): -0.255
glycan array binding signal (z-score) [10]: -0.22
glycan array binding signal (z-score) (Fuc(a1-2)[Gal(a1-3)]Gal): -0.641
glycan array binding signal (z-score) [11]: 0.243
glycan array binding signal (z-score) [12]: -0.485
glycan array binding signal (z-score) [13]: -0.492
glycan array binding signal (z-score) [14]: -0.981
glycan array binding signal (z-score) [15]: -0.018
glycan array binding signal (z-score) [16]: -0.48
glycan array binding signal (z-score) [17]: -0.173
glycan array binding signal (z-score) [18]: 0.055
glycan array binding signal (z-score) [19]: -0.115
glycan array binding signal (z-score) [20]: -0.349
glycan array binding signal (z-score) [21]: 0.605
glycan array binding signal (z-score) [22]: -0.233
glycan array binding signal (z-score) [23]: 0.22
glycan array binding signal (z-score) [24]: 0.857
glycan array binding signal (z-score) [25]: 1.01
glycan array binding signal (z-score) [26]: -0.914
glycan array binding signal (z-score) [27]: -0.013
glycan array binding signal (z-score) [28]: 1.59
glycan array binding signal (z-score) [29]: -0.157
glycan array binding signal (z-score) [30]: -0.416
glycan array binding signal (z-score) [31]: 1.11
glycan array binding signal (z-score) [32]: -0.325
glycan array binding signal (z-score) [33]: 0.153
glycan array binding signal (z-score) [34]: -0.965
glycan array binding signal (z-score) [35]: -0.478
glycan array binding signal (z-score) [36]: 0.208
